Experimental data as given in the supplement of paper PMC12823440, “Inhibitors supercharge kinase turnover through native proteolytic circuits” (Nature, 2025).
Where a name gives a salt, the structure may show the parent alone. The list shows a part of the results. Hit calls seldom repeat between salt and free forms of one compound.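 Kinases, fused to nanoluciferase, were expressed in K562 cells; luminescence was measured every 4 h from 2 to 18 h as percent of control (DMSO = 100%, positive control = 0%). A time point is decreased if signal falls significantly (2 sigma). Hits were called by the authors by a rule that is not shown; the count of time points alone does not decide it.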

Amino acid sequences for entries named in this document (tags omitted). A change or cut given only in a name is not applied to a line headed by its entry.
UniProt P28482, whole entry: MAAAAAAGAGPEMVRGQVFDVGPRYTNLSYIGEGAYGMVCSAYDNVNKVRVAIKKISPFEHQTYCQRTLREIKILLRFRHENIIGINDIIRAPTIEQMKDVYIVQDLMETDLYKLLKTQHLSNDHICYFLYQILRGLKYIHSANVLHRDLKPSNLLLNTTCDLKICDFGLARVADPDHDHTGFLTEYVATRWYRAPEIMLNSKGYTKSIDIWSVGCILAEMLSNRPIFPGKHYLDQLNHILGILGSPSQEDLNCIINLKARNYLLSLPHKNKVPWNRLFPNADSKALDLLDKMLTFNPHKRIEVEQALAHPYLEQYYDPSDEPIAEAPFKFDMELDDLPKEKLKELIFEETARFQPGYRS
UniProt Q16620, whole entry, looked up: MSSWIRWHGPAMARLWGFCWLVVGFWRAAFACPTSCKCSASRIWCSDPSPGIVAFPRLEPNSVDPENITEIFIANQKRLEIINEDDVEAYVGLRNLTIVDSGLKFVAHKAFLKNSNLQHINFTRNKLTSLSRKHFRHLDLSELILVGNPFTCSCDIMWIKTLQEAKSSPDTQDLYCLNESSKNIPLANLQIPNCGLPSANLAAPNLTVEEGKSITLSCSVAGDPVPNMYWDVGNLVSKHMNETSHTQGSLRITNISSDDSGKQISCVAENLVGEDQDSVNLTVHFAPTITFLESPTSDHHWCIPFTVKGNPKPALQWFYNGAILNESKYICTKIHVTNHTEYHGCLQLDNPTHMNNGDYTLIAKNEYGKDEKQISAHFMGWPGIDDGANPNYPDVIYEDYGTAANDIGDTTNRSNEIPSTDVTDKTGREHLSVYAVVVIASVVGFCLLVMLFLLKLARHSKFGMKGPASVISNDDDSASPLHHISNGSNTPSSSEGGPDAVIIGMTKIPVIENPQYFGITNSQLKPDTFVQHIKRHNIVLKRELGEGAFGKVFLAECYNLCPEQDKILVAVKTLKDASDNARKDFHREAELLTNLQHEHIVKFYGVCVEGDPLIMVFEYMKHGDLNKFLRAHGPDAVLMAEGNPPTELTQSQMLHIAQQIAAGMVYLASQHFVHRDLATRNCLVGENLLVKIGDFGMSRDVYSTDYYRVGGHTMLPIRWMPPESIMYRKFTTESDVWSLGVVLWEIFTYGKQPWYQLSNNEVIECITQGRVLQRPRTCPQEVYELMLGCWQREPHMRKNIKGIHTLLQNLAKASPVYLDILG
UniProt Q96KB5: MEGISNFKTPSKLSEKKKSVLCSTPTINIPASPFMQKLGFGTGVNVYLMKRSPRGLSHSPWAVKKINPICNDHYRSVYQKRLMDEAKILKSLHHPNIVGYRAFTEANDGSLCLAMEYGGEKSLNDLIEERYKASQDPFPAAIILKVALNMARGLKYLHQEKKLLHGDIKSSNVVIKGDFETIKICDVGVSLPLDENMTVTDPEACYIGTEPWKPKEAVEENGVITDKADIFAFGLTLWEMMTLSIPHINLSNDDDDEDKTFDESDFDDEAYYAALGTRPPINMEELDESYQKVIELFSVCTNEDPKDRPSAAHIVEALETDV
UniProt P42356, whole entry, looked up: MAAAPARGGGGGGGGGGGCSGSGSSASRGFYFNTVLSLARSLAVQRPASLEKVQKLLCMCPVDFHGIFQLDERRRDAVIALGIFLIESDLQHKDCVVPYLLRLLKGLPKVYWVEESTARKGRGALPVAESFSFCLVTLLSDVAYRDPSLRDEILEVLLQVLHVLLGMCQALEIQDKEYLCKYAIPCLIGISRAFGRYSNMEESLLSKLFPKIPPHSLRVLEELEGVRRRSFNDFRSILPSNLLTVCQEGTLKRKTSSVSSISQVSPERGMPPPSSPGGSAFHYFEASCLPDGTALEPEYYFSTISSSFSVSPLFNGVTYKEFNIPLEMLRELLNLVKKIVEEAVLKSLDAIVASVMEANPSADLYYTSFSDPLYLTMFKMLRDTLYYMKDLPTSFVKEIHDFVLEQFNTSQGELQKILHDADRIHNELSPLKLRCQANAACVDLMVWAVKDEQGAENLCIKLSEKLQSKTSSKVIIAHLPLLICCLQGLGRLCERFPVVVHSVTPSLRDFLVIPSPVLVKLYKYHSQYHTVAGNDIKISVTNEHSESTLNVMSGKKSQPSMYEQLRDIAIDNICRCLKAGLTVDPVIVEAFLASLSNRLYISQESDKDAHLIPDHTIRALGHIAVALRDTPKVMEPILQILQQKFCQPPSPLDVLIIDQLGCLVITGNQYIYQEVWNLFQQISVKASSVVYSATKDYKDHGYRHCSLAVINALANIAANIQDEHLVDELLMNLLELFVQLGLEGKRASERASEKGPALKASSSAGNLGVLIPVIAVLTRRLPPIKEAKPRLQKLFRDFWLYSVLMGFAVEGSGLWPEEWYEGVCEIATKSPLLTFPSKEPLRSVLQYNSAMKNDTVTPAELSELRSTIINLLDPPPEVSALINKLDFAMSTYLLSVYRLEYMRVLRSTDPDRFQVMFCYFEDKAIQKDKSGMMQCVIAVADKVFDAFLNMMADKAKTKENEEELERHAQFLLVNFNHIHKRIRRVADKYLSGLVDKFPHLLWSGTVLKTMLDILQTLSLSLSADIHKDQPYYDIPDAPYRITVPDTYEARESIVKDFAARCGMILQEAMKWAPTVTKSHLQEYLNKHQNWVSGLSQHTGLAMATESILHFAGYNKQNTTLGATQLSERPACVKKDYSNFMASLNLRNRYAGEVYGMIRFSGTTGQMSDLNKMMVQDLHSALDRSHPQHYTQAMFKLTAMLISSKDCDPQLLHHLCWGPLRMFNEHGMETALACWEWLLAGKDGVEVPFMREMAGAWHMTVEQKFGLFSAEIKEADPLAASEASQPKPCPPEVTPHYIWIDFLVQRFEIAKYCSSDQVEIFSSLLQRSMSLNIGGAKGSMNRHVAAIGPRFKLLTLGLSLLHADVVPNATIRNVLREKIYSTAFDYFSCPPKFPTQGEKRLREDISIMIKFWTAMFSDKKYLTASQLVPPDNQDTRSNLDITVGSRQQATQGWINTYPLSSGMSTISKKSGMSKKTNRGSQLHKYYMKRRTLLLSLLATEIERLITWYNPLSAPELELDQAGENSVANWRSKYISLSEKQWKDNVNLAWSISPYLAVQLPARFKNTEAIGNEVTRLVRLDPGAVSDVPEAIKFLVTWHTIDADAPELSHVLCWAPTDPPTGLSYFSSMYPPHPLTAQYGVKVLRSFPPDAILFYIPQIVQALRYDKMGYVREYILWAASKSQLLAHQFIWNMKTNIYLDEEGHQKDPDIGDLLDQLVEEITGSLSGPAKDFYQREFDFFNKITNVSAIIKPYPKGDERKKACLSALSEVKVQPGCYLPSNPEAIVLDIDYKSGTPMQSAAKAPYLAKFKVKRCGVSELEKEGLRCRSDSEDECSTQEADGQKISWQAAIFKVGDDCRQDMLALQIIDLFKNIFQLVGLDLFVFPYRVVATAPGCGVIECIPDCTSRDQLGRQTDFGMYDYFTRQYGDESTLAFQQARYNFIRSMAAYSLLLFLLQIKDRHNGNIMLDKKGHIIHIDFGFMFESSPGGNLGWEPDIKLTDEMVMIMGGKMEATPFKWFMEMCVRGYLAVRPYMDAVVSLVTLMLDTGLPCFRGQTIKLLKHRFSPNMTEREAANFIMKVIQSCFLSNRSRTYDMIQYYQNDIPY
UniProt P53350, whole entry: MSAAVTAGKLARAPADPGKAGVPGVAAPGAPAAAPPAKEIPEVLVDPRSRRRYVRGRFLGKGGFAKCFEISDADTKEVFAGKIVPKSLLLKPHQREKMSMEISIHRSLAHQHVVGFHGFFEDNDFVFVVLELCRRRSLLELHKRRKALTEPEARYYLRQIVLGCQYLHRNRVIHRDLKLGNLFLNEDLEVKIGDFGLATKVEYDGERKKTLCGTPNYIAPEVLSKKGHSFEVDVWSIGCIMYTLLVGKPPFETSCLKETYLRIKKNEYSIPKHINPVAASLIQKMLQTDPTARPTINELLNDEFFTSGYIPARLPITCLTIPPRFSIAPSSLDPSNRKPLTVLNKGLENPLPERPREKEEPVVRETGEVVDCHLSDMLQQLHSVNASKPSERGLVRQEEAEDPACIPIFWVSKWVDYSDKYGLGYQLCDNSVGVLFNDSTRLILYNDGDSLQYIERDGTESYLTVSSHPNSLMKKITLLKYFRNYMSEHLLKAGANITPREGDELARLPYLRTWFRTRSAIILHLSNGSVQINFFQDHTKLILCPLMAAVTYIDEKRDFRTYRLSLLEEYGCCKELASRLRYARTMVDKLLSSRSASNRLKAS
UniProt Q13131: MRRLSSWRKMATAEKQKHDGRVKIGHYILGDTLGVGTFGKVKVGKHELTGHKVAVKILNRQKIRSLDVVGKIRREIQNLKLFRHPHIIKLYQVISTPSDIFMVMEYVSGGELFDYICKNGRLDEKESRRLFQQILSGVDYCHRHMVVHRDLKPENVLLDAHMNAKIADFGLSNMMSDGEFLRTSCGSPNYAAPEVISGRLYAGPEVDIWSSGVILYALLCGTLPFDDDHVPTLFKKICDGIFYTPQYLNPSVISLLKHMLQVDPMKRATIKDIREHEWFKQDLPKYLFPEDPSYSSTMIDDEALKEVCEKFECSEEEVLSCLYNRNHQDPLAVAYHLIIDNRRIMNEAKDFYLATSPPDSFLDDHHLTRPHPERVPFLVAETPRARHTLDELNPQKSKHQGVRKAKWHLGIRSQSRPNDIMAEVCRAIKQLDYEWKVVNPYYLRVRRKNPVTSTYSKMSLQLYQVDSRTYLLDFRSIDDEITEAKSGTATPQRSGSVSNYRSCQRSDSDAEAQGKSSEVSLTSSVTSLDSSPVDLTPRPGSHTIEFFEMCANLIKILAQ
UniProt Q14289, whole entry, looked up: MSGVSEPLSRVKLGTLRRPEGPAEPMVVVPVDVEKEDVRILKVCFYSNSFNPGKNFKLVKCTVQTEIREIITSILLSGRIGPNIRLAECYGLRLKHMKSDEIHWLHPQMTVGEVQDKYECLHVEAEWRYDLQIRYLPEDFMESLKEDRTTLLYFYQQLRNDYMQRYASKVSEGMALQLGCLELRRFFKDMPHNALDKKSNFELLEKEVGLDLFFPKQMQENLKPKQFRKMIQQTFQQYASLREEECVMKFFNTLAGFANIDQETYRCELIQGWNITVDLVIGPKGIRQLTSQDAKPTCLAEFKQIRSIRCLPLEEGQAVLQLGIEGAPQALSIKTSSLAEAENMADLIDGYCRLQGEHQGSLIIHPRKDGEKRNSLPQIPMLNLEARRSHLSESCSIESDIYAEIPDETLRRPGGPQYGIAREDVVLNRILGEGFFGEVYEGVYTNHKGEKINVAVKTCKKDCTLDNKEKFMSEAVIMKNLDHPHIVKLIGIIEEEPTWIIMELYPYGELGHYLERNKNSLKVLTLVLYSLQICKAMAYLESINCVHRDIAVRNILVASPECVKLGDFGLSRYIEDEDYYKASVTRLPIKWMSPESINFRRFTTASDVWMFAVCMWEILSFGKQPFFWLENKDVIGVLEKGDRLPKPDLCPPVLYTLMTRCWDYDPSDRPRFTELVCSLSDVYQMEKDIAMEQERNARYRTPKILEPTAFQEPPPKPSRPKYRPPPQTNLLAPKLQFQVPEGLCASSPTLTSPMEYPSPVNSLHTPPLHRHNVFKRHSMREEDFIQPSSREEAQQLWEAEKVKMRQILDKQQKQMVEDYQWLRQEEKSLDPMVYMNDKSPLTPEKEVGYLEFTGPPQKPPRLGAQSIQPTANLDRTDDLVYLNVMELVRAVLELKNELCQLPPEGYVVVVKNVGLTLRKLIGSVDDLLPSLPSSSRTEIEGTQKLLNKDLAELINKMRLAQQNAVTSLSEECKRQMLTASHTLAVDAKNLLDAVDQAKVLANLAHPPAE

Assays:
Assay in all cases: kinase-Nluc reporter destabilization hit call (1 = scored as downregulated) (binary); higher = compound decreases kinase abundance
Settings in all cases: K562; 2-18 h
[1] = target: MAPK1 (UniProt P28482)
[2] = target: MAPK4 (UniProt P31152)
[3] = target: MAPKAPK2 (UniProt P49137)
[4] = target: MKNK1 (UniProt Q9BUB5)
[5] = target: NTRK2 (UniProt Q16620)
[6] = target: NTRK3 (UniProt Q16288)
[7] = target: PAK4 (UniProt O96013)
[8] = target: PBK (UniProt Q96KB5)
[9] = target: PDGFRB (UniProt P09619)
[10] = target: PDK1 (UniProt Q15118)
[11] = target: PDPK1 (UniProt O15530)
[12] = target: PIK4CA (UniProt P42356)
[13] = target: PIK4CB (UniProt Q9UBF8)
[14] = target: PLK1 (UniProt P53350)
[15] = target: PRKAA1 (UniProt Q13131)
[16] = target: PRKCA (UniProt P17252)
[17] = target: PTK2 (UniProt Q05397)
[18] = target: PTK2B (UniProt Q14289)
[19] = target: RAF1 (UniProt P04049)
[20] = target: RAF1_S257L (clone: RAF1_mut) (UniProt P04049)

Measured: kinase-Nluc reporter destabilization hit call

NC(=O)c1ccc2nc(-c3ccc(Oc4ccc(Cl)cc4)cc3)[nH]c2c1 (10 µM)
inactive: [1] 0 | [2] 0 | [3] 0 | [4] 0 | [5] 0 | [6] 0 | [7] 0 | [8] 0 | [9] 0 | [10] 0 | [11] 0 | [12] 0 | [13] 0 | [14] 0 | [15] 0 | [16] 0 | [17] 0 | [18] 0 | [19] 0 | [20] 0

CN(C)C[C@@H]1CCn2cc(c3ccccc32)C2=C(C(=O)NC2=O)c2cn(c3ccccc23)CCO1 [Ruboxistaurin (hydrochloride)] (10 µM)
inactive: [1] 0 | [2] 0 | [3] 0 | [4] 0 | [5] 0 | [6] 0 | [7] 0 | [8] 0 | [9] 0 | [10] 0 | [11] 0 | [12] 0 | [13] 0 | [14] 0 | [15] 0 | [16] 0 | [17] 0 | [18] 0 | [19] 0 | [20] 0

COc1cc2ncn(-c3cc(OCc4ccccc4C(F)(F)F)c(C(N)=O)s3)c2cc1OC (10 µM)
active: [17] 1
inactive: [1] 0 | [2] 0 | [3] 0 | [4] 0 | [5] 0 | [6] 0 | [7] 0 | [8] 0 | [9] 0 | [10] 0 | [11] 0 | [12] 0 | [13] 0 | [14] 0 | [15] 0 | [16] 0 | [18] 0 | [19] 0 | [20] 0

CNC(=O)c1cccc2cc(Oc3ccnc4cc(OCC5(N)CC5)c(OC)cc34)ccc12 [Lucitanib] (10 µM)
inactive: [1] 0 | [2] 0 | [3] 0 | [4] 0 | [5] 0 | [6] 0 | [7] 0 | [8] 0 | [9] 0 | [10] 0 | [11] 0 | [12] 0 | [13] 0 | [14] 0 | [15] 0 | [16] 0 | [17] 0 | [18] 0 | [19] 0 | [20] 0

CCN1CCN(Cc2ccc(C(=O)Nc3ccc(C)c(Oc4ccc5c(c4)CC(=O)N5)c3)cc2C(F)(F)F)CC1 (2.5 µM)
inactive: [1] 0 | [2] 0 | [3] 0 | [4] 0 | [5] 0 | [6] 0 | [7] 0 | [8] 0 | [9] 0 | [10] 0 | [11] 0 | [12] 0 | [13] 0 | [14] 0 | [15] 0 | [16] 0 | [17] 0 | [18] 0 | [19] 0 | [20] 0

C=CC(=O)N1CC[C@H](n2nc(C#Cc3cc(OC)cc(OC)c3)c3c(N)ncnc32)C1 [Futibatinib] (10 µM)
inactive: [1] 0 | [2] 0 | [3] 0 | [4] 0 | [5] 0 | [6] 0 | [7] 0 | [8] 0 | [9] 0 | [10] 0 | [11] 0 | [12] 0 | [13] 0 | [14] 0 | [15] 0 | [16] 0 | [17] 0 | [18] 0 | [19] 0 | [20] 0

Oc1cc(O)cc(/C=C/c2ccc(O)c(O)c2)c1 [Piceatannol] (10 µM)
inactive: [1] 0 | [2] 0 | [3] 0 | [4] 0 | [5] 0 | [6] 0 | [7] 0 | [8] 0 | [9] 0 | [10] 0 | [11] 0 | [12] 0 | [13] 0 | [14] 0 | [15] 0 | [16] 0 | [17] 0 | [18] 0 | [19] 0 | [20] 0

O=C1NC(=NCc2cccs2)S/C1=C\c1ccc2ncccc2c1 (10 µM)
inactive: [1] 0 | [2] 0 | [3] 0 | [4] 0 | [5] 0 | [6] 0 | [7] 0 | [8] 0 | [9] 0 | [10] 0 | [11] 0 | [12] 0 | [13] 0 | [14] 0 | [15] 0 | [16] 0 | [17] 0 | [18] 0 | [19] 0 | [20] 0

COCCNCCc1cccc(Nc2ncc3c(n2)-c2ccccc2[C@H](c2ccccc2F)C3)c1 [Derazantinib] (2.5 µM)
inactive: [1] 0 | [2] 0 | [3] 0 | [4] 0 | [5] 0 | [6] 0 | [7] 0 | [8] 0 | [9] 0 | [10] 0 | [11] 0 | [12] 0 | [13] 0 | [14] 0 | [15] 0 | [16] 0 | [17] 0 | [18] 0 | [19] 0 | [20] 0

CCN1CCN(c2ccc(Nc3cc(N(C)C(=O)Nc4c(Cl)c(OC)cc(OC)c4Cl)ncn3)cc2)CC1 [Infigratinib] (10 µM)
inactive: [1] 0 | [2] 0 | [3] 0 | [4] 0 | [5] 0 | [6] 0 | [7] 0 | [8] 0 | [9] 0 | [10] 0 | [11] 0 | [12] 0 | [13] 0 | [14] 0 | [15] 0 | [16] 0 | [17] 0 | [18] 0 | [19] 0 | [20] 0

CC(=O)N1CCN(c2ccc(OCC3COC(Cn4ccnc4)(c4ccc(Cl)cc4Cl)O3)cc2)CC1 (stereo not given) [Ketoconazole] (2.5 µM)
inactive: [1] 0 | [2] 0 | [3] 0 | [4] 0 | [5] 0 | [6] 0 | [7] 0 | [8] 0 | [9] 0 | [10] 0 | [11] 0 | [12] 0 | [13] 0 | [14] 0 | [15] 0 | [16] 0 | [17] 0 | [18] 0 | [19] 0 | [20] 0

C=CC(=O)Nc1ccc2ncnc(Nc3cccc(Br)c3)c2c1 (10 µM)
inactive: [1] 0 | [2] 0 | [3] 0 | [4] 0 | [5] 0 | [6] 0 | [7] 0 | [8] 0 | [9] 0 | [10] 0 | [11] 0 | [12] 0 | [13] 0 | [14] 0 | [15] 0 | [16] 0 | [17] 0 | [18] 0 | [19] 0 | [20] 0

Of the compounds above, 2 contain a CF3 group:
COc1cc2ncn(-c3cc(OCc4ccccc4C(F)(F)F)c(C(N)=O)s3)c2cc1OC (10 µM)
active: [17] 1
inactive: [1] 0 | [2] 0 | [3] 0 | [4] 0 | [5] 0 | [6] 0 | [7] 0 | [8] 0 | [9] 0 | [10] 0 | [11] 0 | [12] 0 | [13] 0 | [14] 0 | [15] 0 | [16] 0 | [18] 0 | [19] 0 | [20] 0

CCN1CCN(Cc2ccc(C(=O)Nc3ccc(C)c(Oc4ccc5c(c4)CC(=O)N5)c3)cc2C(F)(F)F)CC1 (2.5 µM)
inactive: [1] 0 | [2] 0 | [3] 0 | [4] 0 | [5] 0 | [6] 0 | [7] 0 | [8] 0 | [9] 0 | [10] 0 | [11] 0 | [12] 0 | [13] 0 | [14] 0 | [15] 0 | [16] 0 | [17] 0 | [18] 0 | [19] 0 | [20] 0

(more compounds)

Cc1cc(F)c(C(=O)Nc2cccc(-c3nncn3C(C)C)n2)cc1-n1cnc(C2CC2)c1 [Selonsertib] (10 µM)
inactive: [1] 0 | [2] 0 | [3] 0 | [4] 0 | [5] 0 | [6] 0 | [7] 0 | [8] 0 | [9] 0 | [10] 0 | [11] 0 | [12] 0 | [13] 0 | [14] 0 | [15] 0 | [16] 0 | [17] 0 | [18] 0 | [19] 0 | [20] 0

NS(=O)(=O)c1ccc(Nc2nc(OCC3CCCCC3)c3[nH]cnc3n2)cc1 (10 µM)
inactive: [1] 0 | [2] 0 | [3] 0 | [4] 0 | [5] 0 | [6] 0 | [7] 0 | [8] 0 | [9] 0 | [10] 0 | [11] 0 | [12] 0 | [13] 0 | [14] 0 | [15] 0 | [16] 0 | [17] 0 | [18] 0 | [19] 0 | [20] 0

COc1cc(OC)cc(N(CCNC(C)C)c2ccc3ncc(-c4cnn(C)c4)nc3c2)c1 [Erdafitinib] (2.5 µM)
inactive: [1] 0 | [2] 0 | [3] 0 | [4] 0 | [5] 0 | [6] 0 | [7] 0 | [8] 0 | [9] 0 | [10] 0 | [11] 0 | [12] 0 | [13] 0 | [14] 0 | [15] 0 | [16] 0 | [17] 0 | [18] 0 | [19] 0
active: [20] 1

COc1cc(C=C(C#N)C(N)=O)cc(CSc2nc3ccccc3s2)c1O (10 µM)
inactive: [1] 0 | [2] 0 | [3] 0 | [4] 0 | [5] 0 | [6] 0 | [7] 0 | [8] 0 | [9] 0 | [10] 0 | [11] 0 | [12] 0 | [13] 0 | [14] 0 | [15] 0 | [16] 0 | [17] 0 | [18] 0 | [19] 0 | [20] 0

O=C(/C=C/c1ccc(O)c(O)c1)c1ccc(O)cc1O [Butein] (10 µM)
inactive: [1] 0 | [2] 0 | [3] 0 | [4] 0 | [5] 0 | [6] 0 | [7] 0 | [8] 0 | [9] 0 | [10] 0 | [11] 0 | [12] 0 | [13] 0 | [14] 0 | [15] 0 | [16] 0 | [17] 0 | [18] 0 | [19] 0 | [20] 0

O=C(NOC[C@H](O)CO)c1ccc(F)c(F)c1Nc1ccc(I)cc1F (2.5 µM)
inactive: [1] 0 | [2] 0 | [3] 0 | [4] 0 | [5] 0 | [6] 0 | [7] 0 | [8] 0 | [9] 0 | [10] 0 | [11] 0 | [12] 0 | [13] 0 | [14] 0 | [15] 0 | [16] 0 | [17] 0 | [18] 0 | [19] 0 | [20] 0
